Screen size: about 320,000 compounds; about 22,000 (6.9%) were called active. The inconclusive results got no clear call from the source; some entries with a clear call stand among them for comparison. Calls come from the whole dose curve; as a rule, active = well fitted inhibition curve with a large enough effect; inconclusive = small, poorly fitted or top-dose-only effect, or another doubt; inactive = no such curve, though single readings can be large or run the other way. Potencies beside an inconclusive call are fits to weak or partial responses and may not hold up.
assay: Primary qHTS for delayed death inhibitors of the malarial parasite plastid, 96 hour incubation; conditions: P. falciparum luciferase reporter growth; series mostly up to 28.7 µM
How it was run: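 Cell-based qHTS: luciferase-tagged P. falciparum in erythrocytes (2% hematocrit, 0.05% parasitemia final) incubated with compounds for 96 hours, 37 C, 5% CO2; luciferase detection reagent then added and luminescence measured.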
Potency is the fitted concentration of half-maximal effect.

SMILES | Potency
CCC(=O)N1CCc2cc(S(=O)(=O)N(C)c3ccc(Br)cc3)ccc21 | inconclusive: 8.28 µM [inhibitor, partial curve, poor fit]
Cc1ccc(Cn2nc(C)cc2C(=O)Nc2ccc(Cl)cc2)cc1 | inconclusive: 11.7 µM [inhibitor, partial curve, poor fit]
CN=c1scc(-c2ccc(Cl)cc2)n1C | inconclusive: 11.7 µM [inhibitor, single point]
COc1ccccc1/C=N/NC(=O)C1=NNC(c2ccccc2)(c2ccccc2)C1 | inconclusive: 13.1 µM [inhibitor, single point]
CCOC(=O)c1[nH]c(C)c(/C=N/O)c1C | inconclusive: 1.17 µM [inhibitor, full curve]
CCOc1ccc(NC(=O)CN(C)Cc2cc(=O)n3c(-c4ccccc4)csc3n2)cc1OCC | inconclusive: 7.38 µM [inhibitor, partial curve]
Cn1nnnc1Sc1ncnc2scc(-c3cccc(F)c3)c12 | inconclusive: 4.15 µM [inhibitor, single point]
CCOC(=O)c1cc2c(nc1NC(=S)Nc1ccccc1)CC(C)(C)OC2 | active: 10.4 µM
O=C(COc1c(F)c(F)c(C(F)(F)F)c(F)c1F)Nc1ccc(N2CCOCC2)c(Cl)c1 | inconclusive: 0.117 µM [inhibitor, full curve]
c1ccc(CCNc2ncnc3ccccc23)cc1 | inactive
CCCCn1c(SCC(=O)Nc2cc(NC(=O)c3ccco3)ccc2C)nc2ccccc2c1=O | inconclusive: 18.5 µM [inhibitor, single point]
COc1ccc(C)cc1NC(=O)C(NCC1CCCO1)c1ccccc1 (configuration not stated) | inconclusive: 11.7 µM [inhibitor, partial curve]
O=C1N=C2SCCN2/C1=C\c1ccccc1Cl | inactive
Cc1cc(C)nc(NS(=O)(=O)c2ccc(NC(=O)c3ccc(O)cc3O)cc2)n1 | inconclusive: 11.7 µM [inhibitor, partial curve, poor fit]
CCCCn1c(-c2ccc(Br)cc2F)nc2c1c(=O)[nH]c(=O)n2CC(C)C | inconclusive: 2.33 µM [inhibitor, partial curve, poor fit]
CC(C)N(CCCNC(=O)Cn1c(=O)c2cccn2c2ccc(F)cc21)Cc1ccccc1 | inconclusive: 18.5 µM [inhibitor, single point]
COc1ccc(CCNC(=O)c2cc(-c3ccccn3)nc3ccccc23)cc1 | inconclusive: 3.7 µM [inhibitor, partial curve, poor fit]
COc1ccc(OC)c(Nc2nc(C3CC3)nc3c2nnn3Cc2ccccc2)c1 | inconclusive: 0.329 µM [inhibitor, full curve]
CC1(C)Oc2ccc3ccc(=O)oc3c2CC1O (configuration not stated) | inconclusive: 18.5 µM [inhibitor, single point]
c1ccc(OCc2nn3c(-c4ccncc4)nnc3s2)cc1 | inconclusive: 11.7 µM [inhibitor, partial curve]
O=C(NC1=NCCS1)c1cc(-c2cccc(Br)c2)nc2ccccc12 | inactive
Cc1c(C)n(C(=O)CN2CCN(c3ccccc3)CC2)c2ccccc12 | inconclusive: 10.4 µM [inhibitor, single point]
CCn1c(-c2ccccc2)c[nH]c1=S | inconclusive: 18.5 µM [inhibitor, single point]
CC1CN(C(=O)c2ccc(-c3cccc(C(F)(F)F)c3)o2)CC(C)O1 (configuration not stated) | inconclusive: 5.86 µM [inhibitor, partial curve]

SMILES | Potency
Cc1ccc(C(=O)N/N=C\C=C\c2ccc(Br)cc2)cn1 | inconclusive: 16.5 µM [inhibitor, single point]
COCCNCCCCOc1ccc(C)cc1[N+](=O)[O-] | inconclusive: 13.1 µM [inhibitor, single point]
Cc1c(C(=O)Nc2ccc3c(c2)OCO3)sc2ncn(CC(=O)N3CC(C)CC(C)C3)c(=O)c12 (configuration not stated) | inconclusive: 10.4 µM [inhibitor, single point]
COc1ccc(/C(N)=N/OC(=O)Cc2ccccc2[N+](=O)[O-])cc1 | active: 13.1 µM
CCOc1ccc(N(C(C)C(=O)N2CCOCC2)S(C)(=O)=O)cc1 (configuration not stated) | inactive
O=C(CSc1nc2ccccc2c(=O)[nH]1)NCc1ccc(Cl)cc1 | inactive
N#Cc1c(Cl)nsc1NC(=O)c1ccccc1 | inactive
Cc1n[nH]c(C)c1CCCCOc1ccccc1F | active: 2.08 µM
COc1ccc(-c2oc(NC(=O)c3ccc(C)cc3)c(C#N)c2-c2ccc(OC)cc2)cc1 | inconclusive: 11.7 µM [inhibitor, partial curve]
CC(=O)N1CCN(C(=O)c2ccc(Cl)c(S(=O)(=O)N3CCCCCC3)c2)CC1 | inactive
CCn1c(=O)c(C(=O)NCCCc2ccccc2)c(O)c2ccccc21 | inconclusive: 14.7 µM [inhibitor, single point]
COc1ccc(CCNS(=O)(=O)c2ccc3c(c2)NC(=O)CCS3)cc1OC | inconclusive: 0.415 µM [inhibitor, full curve]
O=C(NC[C@@H]1CCCO1)c1cccc2c1C(=O)c1ccc(Cl)cc1S2(=O)=O | inconclusive: 5.22 µM [inhibitor, single point]
COc1ccc(C(=O)NCc2nnc(SCC(=O)N3CCCCC3)o2)cc1 | inconclusive: 18.5 µM [inhibitor, single point]
COc1ccc(CCC(=O)N2CCc3ccccc32)cc1 | inactive
S=C(Nc1ccc(Cl)cc1)N1CCN(Cc2ccccc2)CC1 | inactive
CCCC1=[N+](CC(C)=O)CCn2c(C)ccc21 | inactive
COc1ccc(N(C)S(=O)(=O)c2c(C)noc2C)c(OC)c1 | inconclusive: 10.4 µM [inhibitor, single point]
COc1ccccc1NC(=O)CCCc1nnc2n(C)c(=O)c3sccc3n12 | inactive
CCC(Cc1c(I)cc(I)c(O)c1I)C(=O)O (configuration not stated) | inactive
CCCCn1c(SCC(=O)Nc2nnc(CC)s2)nc2ccccc2c1=O | inconclusive: 13.1 µM [inhibitor, single point]
CCC(C)N1CCN(S(=O)(=O)c2ccc(NC(C)=O)cc2)CC1 (configuration not stated) | inactive
O=c1[nH]c(SCc2ccc([N+](=O)[O-])cc2)nc2[nH]ncc12 | active: 7.38 µM
COc1cccc2sc3ccc(NCCC4CCCN4C)cc3c(=O)c12 (configuration not stated) | inconclusive: 8.28 µM [inhibitor, partial curve, poor fit]

SMILES | Potency
C=CCn1c(CSc2nc3ccccc3s2)nnc1SCC(=O)NCCN1CCOCC1 | inconclusive: 10.4 µM [inhibitor, single point]
Cc1cccn2c(NC(=O)c3cccs3)c(-c3ccccc3)nc12 | inconclusive: 10.4 µM [inhibitor, single point]
COc1ccc(/C=C/C(=O)OCC(=O)NC2CCCCC2C)c(OC)c1 (configuration not stated) | inactive
CCc1ccc(NC(=O)COn2nnc3ccc(S(=O)(=O)N(C)C)cc32)cc1 | inconclusive: 18.5 µM [inhibitor, single point]
CCOC(=O)c1cnc(-n2nc(C)cc2C)nc1NNc1ncc(-c2ccccc2)cn1 | active: 1.65 µM
C=CCc1ccccc1OCC(O)CN1C(=O)c2ccccc2C1=O (configuration not stated) | inactive
CC(C)c1ccc(NC(=S)N2CCN(C)CC2)cc1 | inactive
Nc1nnc(SCC(=O)NC2CCCCCC2)s1 | inconclusive: 18.5 µM [inhibitor, single point]
Cc1cccc(OCCNC(=O)c2ncn[nH]2)c1 | inconclusive: 18.5 µM [inhibitor, single point]
CCCN(CCC)S(=O)(=O)c1ccc(C(=O)Nc2ccc(S(=O)(=O)Nc3nnc(CC)s3)cc2)cc1 | inconclusive: 9.28 µM [inhibitor, single point]
O=C(O)C1Nc2c(O)cc(Cl)c([N+](=O)[O-])c2C2C=CCC12 (configuration not stated) | inconclusive: 0.465 µM [inhibitor, full curve, poor fit]
Cc1ccc(S(=O)(=O)Nc2ccccc2C(=O)N2CCCC2)cc1 | inconclusive: 10.4 µM [inhibitor, single point]
c1ccc2c(Nc3nncs3)c3ccccc3nc2c1 | inactive
O=C(NCc1ccc(Cl)cc1)C1CCC(CNc2c(N3CCCCC3)c(=O)c2=O)CC1 (configuration not stated) | inconclusive: 11.7 µM [inhibitor, partial curve]
O=c1cc(CNC2CCCCC2)c2ccccc2[nH]1 | inconclusive: 18.5 µM [inhibitor, single point]
COCCCNCCOCCOc1ccc(C)cc1Br | inconclusive: 0.465 µM [inhibitor, full curve, poor fit]
COc1cc(CNc2ccc(N3CCN(C(C)=O)CC3)cc2)ccc1OCc1ccc(F)cc1 | inconclusive: 6.57 µM [inhibitor, partial curve, poor fit]
CC(=O)Nc1ccc(NC(=O)c2ccc(COc3ccc(C)cc3)o2)cc1 | active: 9.28 µM
COc1cccc(CNC(=O)COC(=O)CCCNC(=O)c2ccc(Cl)cc2)c1 | inactive
CC(=O)N/C(=C\c1ccccc1)C(=O)OCc1cccc(S(=O)(=O)N(C)C)c1 | inconclusive: 14.7 µM [inhibitor, partial curve, poor fit]
COc1ccc(Cc2noc(CN(C)Cc3ccc(-n4cccn4)cc3)n2)cc1OC | active: 2.08 µM
O=S(=O)(c1ccc(N2CCCCCC2)nc1)N1CCCC1 | inactive
CCc1ccc(N(CC(=O)NC(C)C)C(=O)CCC(=O)Nc2nccs2)cc1 | inactive
O=C(O)c1ccc(NC2=C(Cl)C(=O)c3ccccc3C2=O)cc1 | inconclusive: 10.4 µM [inhibitor, partial curve, poor fit]

3 records drawn at random from those above:
SMILES | Potency
CCc1ccc(NC(=O)COn2nnc3ccc(S(=O)(=O)N(C)C)cc32)cc1 | inconclusive: 18.5 µM [inhibitor, single point]
CCCN(CCC)S(=O)(=O)c1ccc(C(=O)Nc2ccc(S(=O)(=O)Nc3nnc(CC)s3)cc2)cc1 | inconclusive: 9.28 µM [inhibitor, single point]
COc1ccc(/C=C/C(=O)OCC(=O)NC2CCCCC2C)c(OC)c1 (configuration not stated) | inactive

Reference: PubChem BioAssay AID504834 (National Center for Advancing Translational Sciences (NCATS), 2011)
